PubChem BioAssay AID686938 – Drosophila RNAi Screening Center – 2013
The screen tested about 23,000 reagents; below is an unselected part of those that have a named target and a result. Over the whole deposit, 75 (0.33%) got an active call. 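Raw plate signals without normalisation; calls rest on plate z-scores that were not deposited; ratio present for only 364 wells.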 Unmarked entries are inactive. The numbers tell different reagents against one gene apart. Reagent sequences are not shown. The record does not give: the dose of the treatment.

Assay: 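Fly genes required for calcium entry once internal stores are emptied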 (primary screen)
Cell system: Drosophila S2R+ cells
Knock-down reagent: long dsRNA against Drosophila genes, about 0.25 µg dsRNA per well, roughly 10,000 cells
Duration: 5 days of knock-down before the calcium assay
Treatment: thapsigargin (SERCA pump blocker) to empty calcium stores; entry signal taken 4 min after adding it
Measurement: 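Per-well fluo-4 fluorescence in two replicates, unnormalised, measured in resting cells and 4 min after store depletion by the SERCA blocker thapsigargin; ratio of the two present in few wells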
Reading the numbers: calcium entry signal: higher = stronger calcium signal after store depletion; resting calcium signal: higher = higher resting calcium signal
Rule for the call: 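Called when the plate z-score of the entry-to-rest ratio, mean of duplicates, falls below −3; wells with low overall dye signal (Fmax z below −2) or more than five off-targets excluded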
Calls: active = strongly reduced calcium entry; inactive = no strong reduction

Gene,dsRNA no.,"calcium entry signal, replicate 1 (fluorescence units)","calcium entry signal, replicate 2 (fluorescence units)","resting calcium signal, replicate 1 (fluorescence units)","resting calcium signal, replicate 2 (fluorescence units)"
CG31546,1,3.40e7,3.69e7,1.48e7,1.63e7
CG7523,1,3.84e7,3.70e7,1.74e7,1.59e7
defl (deflated),1,4.99e7,2.68e7,3.64e7,1.38e7
CG15764,1,3.41e7,3.87e7,1.75e7,1.80e7
bves,1,3.39e7,4.74e7,1.86e7,2.09e7
bves,2,3.61e7,4.48e7,1.90e7,2.03e7
bves,3,3.49e7,3.99e7,2.01e7,1.91e7
bys (by S6),1,3.11e7,2.89e7,1.63e7,1.56e7
GIIIspla2 (Phospholipase A2 group III),1,2.18e7,3.08e7,1.13e7,1.59e7
Sgf29 (SAGA-associated factor 29kDa),1,4.21e7,,1.98e7,

The list goes on (2 carried over from the part before).
Gene,dsRNA no.,"calcium entry signal, replicate 1 (fluorescence units)","calcium entry signal, replicate 2 (fluorescence units)","resting calcium signal, replicate 1 (fluorescence units)","resting calcium signal, replicate 2 (fluorescence units)"
GIIIspla2 (Phospholipase A2 group III),1,2.18e7,3.08e7,1.13e7,1.59e7
Sgf29 (SAGA-associated factor 29kDa),1,4.21e7,,1.98e7,
Pdp1 (PAR-domain protein 1),1,2.68e7,3.62e7,1.61e7,2.08e7
Pdp1 (PAR-domain protein 1),2,2.97e7,4.75e7,2.37e7,2.52e7
Pdp1 (PAR-domain protein 1),3,2.77e7,4.24e7,1.36e7,1.85e7
Pdp1 (PAR-domain protein 1),4,5.08e7,2.85e7,2.36e7,1.18e7
upd3 (unpaired 3),1,3.88e7,3.73e7,1.99e7,1.55e7
upd3 (unpaired 3),2,3.79e7,3.36e7,2.06e7,1.50e7
upd3 (unpaired 3),3,3.19e7,2.94e7,1.92e7,1.44e7
nur (nemuri),1,4.95e7,3.52e7,2.57e7,1.61e7
CG15742,1,4.52e7,4.57e7,2.05e7,2.08e7
CG42750,1,3.14e7,5.39e7,1.86e7,2.33e7
CG42750,2,5.77e7,3.32e7,2.48e7,1.59e7
CG42750,3,5.13e7,3.40e7,2.16e7,1.50e7
CG42750,4,3.63e7,3.58e7,2.16e7,1.67e7
CG42750,5,3.71e7,5.19e7,1.69e7,2.21e7
